Test results from PubChem BioAssay AID248 (DTP/NCI, 2004).
The list is a part of this screen's results and no random one: it gathers tests that were run many times, whatever their T/C, doses with no T/C, and many T/C values between a quarter and a half above the control. Further doses and runs are listed elsewhere. T/C: endpoint of the treated group in % of that of the vehicle group. Some doses have a count of surviving animals in place of a T/C: the source holds a T/C of zero for them, seemingly a mark for toxic or unscored doses. Some survivor counts are full or nearly so, which does not show that the dose was tolerated: survival well below the control is almost never listed, so the zero probably covers shortened survival too. Survivors were counted at the toxicity check, usually on the fifth day, unless a day is given; later deaths do not show. Schedules are NCI's codes, read here as Q, the interval in days (D) or hours (H), X, the number of doses. Some schedules carry Z or #; the key to these is not given. Some entries hold several experiments; their values stand side by side, smallest first. Where survival is the endpoint, this PubChem deposit counts one and a half times the control or more as active, and values a quarter to a half above the control carry no call in these data; other NCI protocols may use other cut-offs.

System: L1210 leukemia ip in BDF1 mice, survival T/C
Test: NCI In Vivo Anticancer Drug Screen. Data for tumor model L1210 Leukemia (intraperitoneal) in B6D2F1 (BDF1) mice
Settings: T/C endpoint: mean survival time, higher T/C = longer survival
[1] = dose: 400.0 mg/kg/injection, schedule: Q01DX001 (ip), vehicle: carboxymethylcellulose (CMC)
[2] = dose: 400.0 mg/kg/injection, schedule: Q04DX002 (ip), vehicle: saline
[3] = dose: 100.0 mg/kg/injection, schedule: Q04DX003 (ip), vehicle: Klucel (hydroxypropylcellulose) (HPC)
[4] = dose: 400.0 mg/kg/injection, schedule: Q01DX001 (ip), vehicle: saline
[5] = dose: 100.0 mg/kg/injection, schedule: Q01DX001 (ip), vehicle: saline
[6] = dose: 200.0 mg/kg/injection, schedule: Q04DX003 (ip), vehicle: saline with Tween-80
[7] = dose: 400.0 mg/kg/injection, schedule: Q04DX003 (ip), vehicle: saline with Tween-80

COc1cc(C=Nc2cc(Br)cc(Br)c2)ccc1N(CCCl)CCCl
T/C (dose: 5.25 mg/kg/injection, schedule: Q01DX009 (ip), vehicle: other): 133 % of control | T/C (dose: 10.5 mg/kg/injection, schedule: Q01DX009 (ip), vehicle: other): 128 and 141 % of control | T/C (dose: 18.0 mg/kg/injection, schedule: Q01DX009 (ip), vehicle: other): 134 % of control | T/C (dose: 30.0 mg/kg/injection, schedule: Q01DX009 (ip), vehicle: other): 141 % of control | T/C (dose: 50.0 mg/kg/injection, schedule: Q01DX001 (ip), vehicle: other): 126 % of control | T/C (dose: 100.0 mg/kg/injection, schedule: Q01DX001 (ip), vehicle: carboxymethylcellulose (CMC)): 125 % of control | survivor count (dose: 266.0 mg/kg/injection, schedule: Q01DX001 (ip), vehicle: carboxymethylcellulose (CMC)): 3 of 6 | survivor count [1]: 0 of 6 and 2 of 6 | survivor count (dose: 600.0 mg/kg/injection, schedule: Q01DX001 (ip), vehicle: carboxymethylcellulose (CMC)): 0 of 6

O=C(Nc1ccc(C2=NCCCN2)cc1)Nc1cccc(C(=O)Nc2ccc(C3=NCCCN3)cc2)c1
T/C (dose: 10.0 mg/kg/injection, schedule: Q01DX Z (ip), vehicle: carboxymethylcellulose (CMC)): 135 % of control | survivor count (dose: 50.0 mg/kg/injection, schedule: Q01DX Z (ip), vehicle: carboxymethylcellulose (CMC)): 3 of 6

CCCCCCCCCC(=O)N(C(C)C)C(C)C
survivor count (dose: 400.0 mg/kg/injection, schedule: Q01DX009 (ip), vehicle: carboxymethylcellulose (CMC)): 3 of 3

CCCCCCCCCCCCCCCCOc1ccc(Cl)cc1
survivor count (dose: 200.0 mg/kg/injection, schedule: Q01DX001 (ip), vehicle: Klucel (hydroxypropylcellulose) (HPC)): 6 of 6

CN(C)CCC(=O)c1ccc2cc(Br)c3ccccc3c2c1
survivor count (dose: 20.0 mg/kg/injection, schedule: Q01DX Z (ip), vehicle: methylcellulose (MC)): 5 of 6

CCOc1cc[n+]([O-])cc1C
survivor count (dose: 200.0 mg/kg/injection, schedule: Q01DX001 (ip), vehicle: carboxymethylcellulose (CMC)): 0 of 4 | survivor count [1]: 0 of 4

COC(=O)C12OCC34C(CC5C(C)=C(O)C(=O)CC5(C)C3C(O)C1O)OC(=O)C(OC(=O)/C=C(\C)C(C)(C)O)C24 (stereo unspecified)
T/C (dose: 0.12 mg/kg/injection, schedule: Q01DX009 (ip), vehicle: saline with Tween-80): 126 % of control | T/C (dose: 0.25 mg/kg/injection, schedule: Q01DX009 (ip), vehicle: saline with Tween-80): 129 % of control

O=C(N/N=C/c1ccco1)c1cccnc1
survivor count (dose: 400.0 mg/kg/injection, schedule: Q01DX009 (ip), vehicle: Klucel (hydroxypropylcellulose) (HPC)): 2 of 6

CCC1CCCCN1 (stereo unspecified)
T/C (dose: 20.0 mg/kg/injection, schedule: Q04DX002 (ip), vehicle: saline): 128 % of control | survivor count (dose: 100.0 mg/kg/injection, schedule: Q04DX002 (ip), vehicle: saline): 0 of 3 and 0 of 6 | survivor count (dose: 200.0 mg/kg/injection, schedule: Q04DX002 (ip), vehicle: saline): 0 of 3 and 0 of 6 | survivor count [2]: 0 of 3 and 0 of 6

Cc1cc(N(CCCl)CCCl)ccc1C=Nc1ccccc1-c1ccccc1
T/C (dose: 20.0 mg/kg/injection, schedule: Q01DX Z (ip), vehicle: carboxymethylcellulose (CMC)): 126 % of control

Cc1ccc2c(c1)CN(Cc1ccccc1)CO2
survivor count [3]: 0 of 6

Nc1cccc2cccnc12 (tested in a mixture with another compound)
survivor count (dose: 100.0 mg/kg/injection, schedule: Q01DX009 (ip), vehicle: DMSO): 1 of 6 | survivor count (dose: 200.0 mg/kg/injection, schedule: Q01DX009 (ip), vehicle: DMSO): 0 of 6 | survivor count (dose: 400.0 mg/kg/injection, schedule: Q01DX009 (ip), vehicle: DMSO): 0 of 6

CNCCN(C)CCNC
survivor count (dose: 200.0 mg/kg/injection, schedule: Q01DX009 (ip), vehicle: saline): 0 of 6 | survivor count (dose: 400.0 mg/kg/injection, schedule: Q04DX003 (ip), vehicle: saline): 0 of 6

NC(N)=NCCCCNCCCN=C(N)N
survivor count (dose: 300.0 mg/kg/injection, schedule: Q01DX001 (ip), vehicle: saline): 0 of 6

CCC(C(OC(C)=O)C(C)C)[N+](=O)[O-] (stereo unspecified)
survivor count (dose: 37.5 mg/kg/injection, schedule: Q01DX001 (ip), vehicle: other): 1 of 6 | survivor count (dose: 75.0 mg/kg/injection, schedule: Q01DX001 (ip), vehicle: other): 0 of 6 | survivor count (dose: 150.0 mg/kg/injection, schedule: Q01DX001 (ip), vehicle: other): 0 of 6 | survivor count (dose: 300.0 mg/kg/injection, schedule: Q01DX001 (ip), vehicle: other): 0 of 6

c1ccc2c(c1)C1c3cccc[n+]3C2CC1n1c2ccccc2c2ccccc21 (stereo unspecified)
survivor count (dose: 50.0 mg/kg/injection, schedule: Q01DX009 (ip), vehicle: Klucel (hydroxypropylcellulose) (HPC)): 2 of 6 | survivor count [3]: 0 of 6 | survivor count (dose: 200.0 mg/kg/injection, schedule: Q04DX003 (ip), vehicle: Klucel (hydroxypropylcellulose) (HPC)): 0 of 6 | survivor count (dose: 400.0 mg/kg/injection, schedule: Q04DX003 (ip), vehicle: Klucel (hydroxypropylcellulose) (HPC)): 0 of 6

O=C(O)c1ccccc1C(=O)Nc1cccc2ccccc12
survivor count (dose: 400.0 mg/kg/injection, schedule: Q04DX002 (ip), vehicle: Klucel (hydroxypropylcellulose) (HPC)): 3 of 3

Cc1coc2c1[C@@H](O)[C@]1(C)[C@@H](C)CC[C@H](O)[C@]1(O)C2
survivor count [4]: 0 of 6

CN(C)N=Nc1ccc[n+]([O-])c1
survivor count (dose: 119.0 mg/kg/injection, schedule: Q01DX009 (ip), vehicle: saline): 5 of 6 | survivor count (dose: 178.0 mg/kg/injection, schedule: Q01DX009 (ip), vehicle: saline): 1 of 6 | survivor count (dose: 267.0 mg/kg/injection, schedule: Q01DX009 (ip), vehicle: saline): 0 of 6 | survivor count (dose: 400.0 mg/kg/injection, schedule: Q01DX009 (ip), vehicle: saline): 1 of 6

Oc1ccccc1C=NCCCN1CCOCC1.Oc1ccccc1C=NCCCN1CCOCC1.[Co]
survivor count [5]: 0 of 6

CCC(CC)COCCCN
survivor count (dose: 100.0 mg/kg/injection, schedule: Q04DX003 (ip), vehicle: saline with Tween-80): 0 of 6 | survivor count [6]: 0 of 6 | survivor count [7]: 0 of 6

c1ccc2c(c1)ccc1cc3cc4cc5c(ccc6ccccc65)cc4cc3cc12
survivor count (dose: 100.0 mg/kg/injection, schedule: Q04DX002 (ip), vehicle: Klucel (hydroxypropylcellulose) (HPC)): 3 of 3

CCOC(=O)c1ccc(Oc2ncc([N+](=O)[O-])s2)cc1
survivor count (dose: 11.25 mg/kg/injection, schedule: Q01DX009 (ip), vehicle: acetone): 6 of 6 | survivor count (dose: 12.5 mg/kg/injection, schedule: Q01DX001 (ip), vehicle: saline): 6 of 6 | survivor count (dose: 22.5 mg/kg/injection, schedule: Q01DX009 (ip), vehicle: acetone): 6 of 6 | survivor count (dose: 25.0 mg/kg/injection, schedule: Q01DX001 (ip), vehicle: saline): 6 of 6 | survivor count (dose: 45.0 mg/kg/injection, schedule: Q01DX009 (ip), vehicle: acetone): 6 of 6 | survivor count (dose: 45.0 mg/kg/injection, schedule: Q04DX003 (ip), vehicle: saline with Tween-80): 6 of 6 | survivor count (dose: 50.0 mg/kg/injection, schedule: Q01DX001 (ip), vehicle: saline): 6 of 6 | survivor count (dose: 65.0 mg/kg/injection, schedule: Q04DX003 (ip), vehicle: saline): 3 of 6 | survivor count [5]: 0 of 6 | survivor count (dose: 200.0 mg/kg/injection, schedule: Q01DX001 (ip), vehicle: saline): 0 of 6 | survivor count [4]: 0 of 6

O=C(/C=C/c1cccc([N+](=O)[O-])c1)CCl
survivor count [6]: 1 of 6 | survivor count [7]: 0 of 6

COc1ccc(CCN=C(N)CCl)cc1
survivor count [2]: 0 of 3

c1c[nH]c(C2Nc3ccccc3S2)c1 (stereo unspecified)
survivor count [4]: 3 of 6

NC(CCl)=NCCCN1CCOCC1
survivor count [2]: 0 of 3
